# These are yes or no findings as the source states them, for the method shown. In cells and extracts the contact can be indirect. Some results given as binding are weak or reduced against the parent protein; the word gives no strength. For part of these data: Tags and fused reporters may be left off the sequences shown.
# T1: FIB2 fused to cYFP (Arabidopsis thaliana) (UniProt Q94AH9)
# T1 sequence: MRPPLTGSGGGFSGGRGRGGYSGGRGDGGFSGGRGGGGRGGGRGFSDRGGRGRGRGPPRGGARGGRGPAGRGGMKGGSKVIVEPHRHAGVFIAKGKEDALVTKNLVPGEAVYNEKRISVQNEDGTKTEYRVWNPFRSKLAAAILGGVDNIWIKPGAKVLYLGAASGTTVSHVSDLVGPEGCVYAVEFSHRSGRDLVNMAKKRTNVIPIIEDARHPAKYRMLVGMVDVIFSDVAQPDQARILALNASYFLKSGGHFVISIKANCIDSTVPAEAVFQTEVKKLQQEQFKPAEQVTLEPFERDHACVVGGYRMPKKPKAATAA
# T2: HD2C (co-IP) (Arabidopsis) (UniProt Q9LZR5)
# T2 sequence: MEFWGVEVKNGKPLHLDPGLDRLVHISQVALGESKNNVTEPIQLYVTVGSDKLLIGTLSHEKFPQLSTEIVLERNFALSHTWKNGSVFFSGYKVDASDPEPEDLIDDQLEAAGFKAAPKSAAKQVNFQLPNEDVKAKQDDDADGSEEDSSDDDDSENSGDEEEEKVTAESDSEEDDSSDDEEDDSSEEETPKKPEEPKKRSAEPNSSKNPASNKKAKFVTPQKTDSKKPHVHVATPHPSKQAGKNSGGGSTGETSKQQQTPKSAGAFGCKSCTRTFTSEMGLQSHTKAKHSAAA
# B1: HD2B fused to nYFP (protein, UniProt Q56WH4 1-306)
# chain: MEFWGVAVTPKNATKVTPEEDSLVHISQASLDCTVKSGESVVLSVTVGGAKLVIGTLSQDKFPQISFDLVFDKEFELSHSGTKANVHFIGYKSPNIEQDDFTSSDDEDVPEAVPAPAPTAVTANGNAGAAVVKADTKPKAKPAEVKPAEEKPESDEEDESDDEDESEEDDDSEKGMDVDEDDSDDDEEEDSEDEEEEETPKKPEPINKKRPNESVSKTPVSGKKAKPAAAPASTPQKTEEKKKGGHTATPHPAKKGGKSPVNANQSPKSGGQSSGGNNNKKPFNSGKQFGGSNNKGSNKGKGKGRA
# B2: HD2C (BiFC construct) (protein, UniProt Q9LZR5 1-294)
# chain: T2 sequence
# B3: FIB2 (co-IP) (protein, UniProt Q94AH9 1-320)
# chain: T1 sequence
# Key:
# [1] = molecular target: T1, FIB2 fused to cYFP (Arabidopsis thaliana); assay: split reporter; BiFC in Arabidopsis mesophyll protoplasts; nYFP and cYFP fusions from pBiFCt-2in1-NN, PEG transformation; YFP signal by confocal microscopy after 16 h to 24 h in the dark (legend: 24 h at 25 °C); RFP as internal marker for transformation
# [2] = molecular target: T1, FIB2 fused to cYFP (Arabidopsis thaliana); assay: split reporter; BiFC of HD2C, in vivo (Supplement Figure S2); details not shown
# [3] = molecular target: T2, HD2C (co-IP) (Arabidopsis); assay: co-IP; Co-IP of HD2C by a former colleague; no details given
binder,measurement,setting,value
B1,binding,[1],binds
B2,binding,[2],binds
B3,binding,[3],binds

# Reference: paper PMC10298649
